These results are taken from US10421778B2 (WASHINGTON UNIVERSITY, priority 2015, dated 2019).

Some results are limits rather than exact numbers.

The nature of one series: peptide synthesis. The note with it: late stage modification step.
Series [1] in a line: general procedure: solution-phase peptide synthesis; mixed anhydride; HATU; EDCl; DPPA (macrolactamization).
The mark [2] stands for this setting: late stage modification step, LC-MS.

Take “Cyclo-Asp(Pro-^DPro-Val)-NHCH2CH2CH2COOMe”: in the series “peptide synthesis”, the “final LC-MS purity” value is listed as 98% and the step yield is reported as 86%. Consider “Cyclo-Asp(^DPro-Pro-Val)-NHCH2CH2CH2SCH3”, for which, in the series “peptide synthesis”, the “final LC-MS purity” value is above 99% and the step yield entry was “yield, 68%”. “Cyclo-^DAsp(Pro-^DPro-Val)-NHCH2CH2CH2CONHOH” had a step yield in series [1] (late stage modification step) of 87%. Also, the “final LC-MS purity” value in series [1] (setting [2]) is given as above 99%. For “Cyclo-^DAsp(Pro-^DPro-Val)-NHCH2CH2CH2COOMe”, in that order: 85% and above 98%. For “Cyclo-^DAsp(^DPro-Pro-Val)-NHCH2CH2CH2CONHOH”, in that order: 85% and 99%.

The substance Cyclo-Asp(Pro-^DPro-Val)-OH had a step yield in series [1] (late stage modification step) of 94%. In addition, the “purity (crude or final not stated)” value in series [1] (setting [2]) is reported as above 99%. For the substance [Cyclo-Asp(^DPro-Pro-Val)-NHCH2CH2S]2, the conjugation yield entry in series [1] (conjugation step) was “yield, 82%”. Also, the “final LC-MS purity” value in series [1] (conjugation step, LC-MS) is above 99%. With “Cyclo-^DAsp(Pro-^DPro-Val)-NHCH2CH2CH2SCH3”, the step yield in series [1] (late stage modification step) is 70%. In addition, in series [1] (setting [2]), the “final LC-MS purity” value came out at 98%.

In series [1] (late stage modification step), Cyclo-Asp(Pro-^DPro-Val)-NHCH2CH2SH displayed a step yield of 74%. In addition, the “purity (crude or final not stated)” value in series [1] (setting [2]) is above 99%. Consider [Cyclo-^DAsp(^DPro-Pro-Val)-NHCH2CH2S]2, for which the conjugation yield result in series [1] (conjugation step) is reported as “yield, 78%”. For the same substance, the “final LC-MS purity” value in series [1] (conjugation step, LC-MS) turned out to be 98%.

In the case of Cyclo-Asp(^DPro-Pro-Val)-OH, the step yield result in series [1] (late stage modification step) was “yield, 96%”. The “purity (crude or final not stated)” value in series [1] (setting [2]) was above 99%.

For the substance “Cyclo-Asp(^DPro-Pro-Val)-NHCH2CH2CH2S(═O)2CH3”, in the series “peptide synthesis”, the “final LC-MS purity” value is listed as above 99% and the step yield turned out to be 83%. Consider “Cyclo-^DAsp(^DPro-Pro-Val)-NHCH2CH2S—SCH2CH2NHP(O)(OPh)”, for which the step yield in series [1] (late stage modification step) stood at 56%. Also, in series [1] (setting [2]), the “final LC-MS purity” value is recorded as above 99%. For the substance “Cyclo-Asp(Pro-^DPro-Val)-NHCH2CH2CH2CONHOH”, in “peptide synthesis”, the “final LC-MS purity” value is on record as 99% and the step yield came to 86%.

For the substance Cyclo-Asp(^DPro-Pro-Val)-NHCH2CH2CH2OH, in series [1] (late stage modification step), the step yield is 60%. Moreover, the “final LC-MS purity” value in series [1] (setting [2]) is above 97%.

In turn, “Cyclo-^DAsp(^DPro-Pro-Val)-NHCH2CH2CH2S(═O)2CH3” registered a step yield in series [1] (late stage modification step) of 85%. Also, the “final LC-MS purity” value in series [1] (setting [2]) was found to be 97%. For “Cyclo-^DAsp(^DPro-Pro-Val)-NHCH2CH2CH2COOH”, in that order: 95% and above 99%. For the substance “Cyclo-Asp(Pro-^DPro-Val)-NHCH2CH2CH2SCH3”, in the series “peptide synthesis”, the “final LC-MS purity” value was 97% and the step yield is listed as 70%. Substance “Cyclo-^DAsp(^DPro-Pro-Val)-NHCH2CH2S—SCH2CH2NH2” returned a step yield in series [1] (late stage modification step) of 67%. In addition, the “final LC-MS purity” value in series [1] (setting [2]) stood at 97%. As for Cyclo-Asp(^DPro-Pro-Val)-NHCH2CH2SH, the step yield result in series [1] (late stage modification step) was “yield, 87%”. Also, the “final LC-MS purity” value in series [1] (setting [2]) is recorded as above 99%. For the substance “Cyclo-Asp(^DPro-Pro-Val)-NHCH2CH2CH2COOMe”, in “peptide synthesis”, the “final LC-MS purity” value is on record as above 99% and the step yield was 86%. As for “[Cyclo-^DAsp(^DPro-Pro-Val)-NHCH2CH2CH2S]2”, the conjugation yield result in series [1] (conjugation step) is “yield, 67%”. Also, the “final LC-MS purity” value in series [1] (conjugation step, LC-MS) was 99%. The substance “Cyclo-^DAsp(^DPro-Pro-Val)-NHCH2CH2CH2COOMe” returned a step yield in series [1] (late stage modification step) of 85%. Also, the “final LC-MS purity” value in series [1] (setting [2]) is above 99%.

The substance [Cyclo-Asp(Pro-^DPro-Val)-NHCH2CH2S]2 yielded a conjugation yield in series [1] (conjugation step) of 77%. Further, the “final LC-MS purity” value in series [1] (conjugation step, LC-MS) is on record as above 99%. Turning to “TFA.Acp-Leu-Gly-Lys(Ac)-Cumarin Tetrapeptide”, in series [1] (late stage modification step), the step yield entry was “yield: 97%”. Further, the “crude LC-MS purity” value in series [1] (setting [2]) is reported as above 98%. Consider Cyclo-^DAsp(^DPro-Pro-Val)-OH, for which the step yield entry in series [1] (late stage modification step) is recorded as “yield, 94%”. The “purity (crude or final not stated)” value in series [1] (setting [2]) is above 99%. With Boc-^DAsp(Pro-^DPro-Val-O^tBu)-OBn, the step yield entry in series [1] (coupling step) was “yield: 66%”. With “Cyclo-Asp(^DPro-Pro-Val)-NHCH2CH2CH2CONHOH”, in the series “peptide synthesis”, the “final LC-MS purity” value is recorded as above 99% and the step yield is listed as 87%. “Cyclo-^DAsp(Pro-^DPro-Val)-NHCH2CH2S—SCH2CH2NH2”: in series [1] (late stage modification step), the step yield worked out at 65%. For the same substance, the “final LC-MS purity” value in series [1] (setting [2]) was 97%. For “Cyclo-^DAsp(^DPro-Pro-Val)-NHCH2CH2CH2OH”, in that order: 75% and above 99%. With “Cyclo-Asp(Pro-^DPro-Val)-NHCH2CH2CH2S(═O)2CH3”, in the series “peptide synthesis”, the “final LC-MS purity” value is above 99% and the step yield worked out at 89%. “Cyclo-^DAsp(^DPro-Pro-Val)-NHCH2CH2CH2SCH3”: in series [1] (late stage modification step), the step yield entry is listed as “yield, 65%”. Also, in series [1] (setting [2]), the “final LC-MS purity” value turned out to be 98%. As for Cyclo-^DAsp(^DPro-Pro-Val)-NHCH2CH2SH, the step yield entry in series [1] (late stage modification step) is listed as “yield, 80%”. In addition, the “final LC-MS purity” value in series [1] (setting [2]) is above 99%.

Consider “Cyclo-^DAsp(Pro-^DPro-Val)-NHCH2CH2CH2S(═O)2CH3”, for which, in series [1] (late stage modification step), the step yield came out at 83%. The “final LC-MS purity” value in series [1] (setting [2]) is on record as 99%. With “[Cyclo-Asp(^DPro-Pro-Val)-NHCH2CH2CH2S]2”, the conjugation yield entry in series [1] (conjugation step) is listed as “yield, 65%”. The “final LC-MS purity” value in series [1] (conjugation step, LC-MS) is given as above 99%. Substance “Cyclo-^DAsp(Pro-^DPro-Val)-NHCH2CH2CH2COOH” displayed a step yield in series [1] (late stage modification step) of 95%. The “final LC-MS purity” value in series [1] (setting [2]) is reported as above 99%. In series [1] (cyclisation step), Cyclo-^DAsp(Pro-^DPro-Val)-OBn returned a cyclisation yield of 73%. In series [1] (cyclisation step, LC-MS), the “final LC-MS purity” value is given as above 99%. Take Cyclo-Asp(^DPro-Pro-Val)-NHCH2CH2CH2SH: in series [1] (late stage modification step), the step yield entry was “yield, 79%”. For the same substance, the “final LC-MS purity” value in series [1] (setting [2]) is on record as above 99%. Regarding Cyclo-^DAsp(^DPro-Pro-Val)-OBn, the cyclisation yield result in series [1] (cyclisation step) is “yield, 78%”. Further, in series [1] (cyclisation step, LC-MS), the “final LC-MS purity” value is listed as 99%. In the case of Boc-Asp(^DPro-Pro-Val-O^tBu)-OBn, in series [1] (coupling step), the step yield result is listed as “yield: 75%”.

Take Boc-Asp(Pro-^DPro-Val-O^tBu)-OBn: the step yield result in series [1] (coupling step) is “yield: 73%”. Consider “Cyclo-Asp(^DPro-Pro-Val)-NHCH2CH2CH2COOH”, for which, in “peptide synthesis”, the “final LC-MS purity” value was above 99% and the step yield is recorded as 94%. “Cyclo-^DAsp(^DPro-Pro-Val)-NHCH2CH2CH2SH”: in series [1] (late stage modification step), the step yield result is “yield, 85%”. For the same substance, the “final LC-MS purity” value in series [1] (setting [2]) is given as above 99%. For “Cyclo-Asp(Pro-^DPro-Val)-NHCH2CH2CH2COOH”, in the series “peptide synthesis”, the “final LC-MS purity” value is recorded as above 99% and the step yield came out at 93%. For “Boc-Acp-Leu-Gly-Lys(Ac)-Cumarin Tetrapeptide”, in series [1] (coupling step), the step yield entry was “yield: 85%”. For the substance “Cyclo-Asp(Pro-^DPro-Val)-NHCH2CH2S—SCH2CH2NH2”, in series [1] (late stage modification step), the step yield is listed as 69%. Moreover, the “final LC-MS purity” value in series [1] (setting [2]) is 96%.

On to Cyclo-Asp(Pro-^DPro-Val)-NHCH2CH2CH2SH, for which, in series [1] (late stage modification step), the step yield was found to be 88%. In addition, the “purity (crude or final not stated)” value in series [1] (setting [2]) was above 99%. Substance Cyclo-DAsp(Pro-DPro-Val)-OH gave a step yield in series [1] (late stage modification step) of 91%. Moreover, in series [1] (setting [2]), the “purity (crude or final not stated)” value worked out at 97%. On to “Cyclo-Asp(^DPro-Pro-Val)-NHCH2CH2S—SCH2CH2NH2”, for which, in series [1] (late stage modification step), the step yield was 65%. In addition, in series [1] (setting [2]), the “final LC-MS purity” value was above 99%. Consider Boc-^DAsp(^DPro-Pro-Val-O^tBu)-OBn, for which the step yield result in series [1] (coupling step) is given as “yield: 77%”. Turning to “Cyclo-Asp(^DPro-Pro-Val)-NHCH2CH2S—SCH2CH2NHP(O)(OPh)”, the step yield in series [1] (late stage modification step) is on record as 52%. Besides, the “final LC-MS purity” value in series [1] (setting [2]) is recorded as above 99%. For Cyclo-^DAsp(Pro-^DPro-Val)-NHCH2CH2SH, in series [1] (late stage modification step), the step yield turned out to be 71%. The “purity (crude or final not stated)” value in series [1] (setting [2]) was above 99%. For “[Cyclo-^DAsp(Pro-^DPro-Val)-NHCH2CH2CH2S]2”, the conjugation yield in series [1] (conjugation step) was found to be 63%. Besides, the “final LC-MS purity” value in series [1] (conjugation step, LC-MS) is above 99%.

With Cyclo-Asp(^DPro-Pro-Val)-OBn, in series [1] (cyclisation step), the cyclisation yield result was “yield, 79%”. Further, the “final LC-MS purity” value in series [1] (cyclisation step, LC-MS) is listed as 99%. Substance “Cyclo-^DAsp(Pro-^DPro-Val)-NHCH2CH2CH2SH” registered a step yield in series [1] (late stage modification step) of 87%. In addition, in series [1] (setting [2]), the “purity (crude or final not stated)” value is reported as above 99%. Cyclo-Asp(Pro-^DPro-Val)-OBn registered a cyclisation yield in series [1] (cyclisation step) of 67%. Besides, in series [1] (cyclisation step, LC-MS), the “final LC-MS purity” value is given as above 97%.

In series [1] (conjugation step), “[Cyclo-Asp(Pro-^DPro-Val)-NHCH2CH2CH2S]2” gave a conjugation yield of 67%. Further, in series [1] (conjugation step, LC-MS), the “final LC-MS purity” value is above 99%. For [Cyclo-DAsp(Pro-DPro-Val)-NHCH2CH2S]2, in that order: 73% and above 99%.
